Data source: PubChem BioAssay AID504791 (Drosophila RNAi Screening Center, 2011)
The screen tested about 23,000 reagents; this is an unselected part of those with a known target gene and a result. In the full data, 199 (0.86%) are marked active. 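Plate-scaled ratios behind the calls are not deposited; printed light signals are raw; many rows marked increased or decreased are still called inactive.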 Reagents against one gene are numbered here. Names joined by + are all predicted targets of the reagent. Reagent sequences are not shown. The record does not give: the direction of the score.

Purpose: 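Factors in Argonaute-based small RNA production and activity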 (primary screen)
Cell system: Drosophila S2-derived reporter cells
Reagents: long dsRNA against Drosophila genes, about 150-250 ng dsRNA per well (siRNA assay); about 80-120 ng (miRNA assay)
Timing: about 5 days (siRNA assay); about 4 days (miRNA assay)
Challenge: copper sulfate induction of reporters: 25 µM (siRNA assay); 200 mM stated (miRNA assay), 1-2 days before reading
Measurement: 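Dual luciferase assay: Renilla to firefly signal ratio in each well, scaled to the mean ratio of its plate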
Hit rule: 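First-pass picks had plate-scaled ratios over 1.5 for the siRNA assay, over 1.6 for the miRNA assay, or under 0.6; two distinct dsRNAs had to score alike on retest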

Gene	reagent	stable siRNA reporter change	miRNA reporter change	stable assay Renilla, run 1 (luminescence)	stable assay firefly, run 1 (luminescence)	Call
Gapvd1 (GeneID 32070)	1			4788	3.82e5	inactive
CG13840 (GeneID 42705)	1			7940	3.88e5	inactive
CG13840 (GeneID 42705)	2			5002	3.56e5	inactive
Irbp (GeneID 117419)	1			6094	3.80e5	inactive
Irbp (GeneID 117419)	2			4595	2.90e5	inactive
CG31869 (GeneID 34490)	1			7775	3.51e5	inactive
CG31869 (GeneID 34490)	2			7202	3.55e5	inactive
CG14711 + Zaf1	1			6235	3.46e5	inactive
Pur-alpha (GeneID 43797)	1			8551	5.59e5	inactive
snf (GeneID 31442)	1			17354	7.88e5	inactive
HLH3B (GeneID 31249)	1			5695	3.06e5	inactive
pita (GeneID 37730)	1			4875	4.27e5	inactive
pita (GeneID 37730)	2			1.26e5	2.29e5	inactive
CG31464 (GeneID 318749)	1			6014	3.93e5	inactive
Oseg2 (GeneID 38282)	1			6151	3.70e5	inactive
CG11069 (GeneID 42976)	1			9163	3.18e5	inactive
drn (GeneID 41114)	1			6488	4.63e5	inactive
CG33262 (GeneID 2768975)	1			4208	3.93e5	inactive
AsnS (GeneID 2768965)	1			5807	4.03e5	inactive
exp (GeneID 36276)	1		reporter ratio lowered past the hit cutoff	4267	2.12e5	inactive
CG42296 (GeneID 53544)	1			8520	4.71e5	inactive
CG17019 (GeneID 36425)	1			8415	4.24e5	inactive
Pex11ab (GeneID 36758)	1			6955	3.82e5	inactive
CG10470 (GeneID 35174)	1			6814	3.61e5	inactive
sni (GeneID 31761)	1			7587	5.67e5	inactive
CG12470 (GeneID 30977)	1			7176	4.21e5	inactive
ssx (GeneID 31086)	1			5158	4.01e5	inactive
TTLL12 (GeneID 35732)	1			6886	4.05e5	inactive
Wdfy2 (GeneID 34425)	1			16442	9.09e5	inactive
Obp83ef (GeneID 40747)	1			6190	3.31e5	inactive
ppk7 (GeneID 33886)	1			9026	5.84e5	inactive
udd (GeneID 35781)	1			7727	4.60e5	inactive
Nup58 (GeneID 42342)	1			5947	2.65e5	inactive
CG9021 (GeneID 33818)	1			83795	1.62e5	inactive
ND-51 (GeneID 33852)	1			1.51e5	3.06e5	inactive
CG42457 (retired record) + cpo	1			2787	2.90e5	inactive
CG42457 (retired record) + cpo	2	reporter ratio raised past the hit cutoff		6215	1.80e5	inactive
CG42457 (retired record) + cpo	3			5404	1.99e5	inactive
CG42457 (retired record) + cpo	4			6026	2.42e5	inactive
CG42457 (retired record) + cpo	5			3863	3.62e5	inactive
CG7600 (GeneID 39267)	1		reporter ratio lowered past the hit cutoff	6678	4.53e5	inactive
stl (GeneID 37619)	1			1.45e5	2.83e5	inactive
Ugt49B1 (GeneID 37420)	1			6447	4.72e5	inactive
CAH2 (GeneID 39390)	1			6178	2.94e5	inactive
CG4956 (GeneID 43114)	1			6162	2.87e5	inactive
CG32447 (GeneID 40412)	1			8354	2.79e5	inactive
CG32447 (GeneID 40412)	2			7083	4.53e5	inactive
CG34214 (GeneID 5740774)	1			13396	1.46e6	inactive
Ssk (GeneID 40207)	1			10414	3.80e5	inactive
CSN1b (GeneID 40063)	1			4992	2.94e5	inactive
Ndc80 (GeneID 32316)	1			7795	5.82e5	inactive
Ndc80 (GeneID 32316)	2			10169	6.02e5	inactive
Lip3 (GeneID 41643)	1			5635	3.50e5	inactive
Prosbeta4R1 (GeneID 33449)	1			7555	4.18e5	inactive
CG13280 (GeneID 35015)	1			6871	2.98e5	inactive
KFase (GeneID 33907)	1			7070	4.34e5	inactive
hh (GeneID 42737)	1			7310	4.00e5	inactive
hh (GeneID 42737)	2		reporter ratio raised past the hit cutoff			inactive
St1 (GeneID 37742)	1			43348	3.56e5	inactive
CG14247 (GeneID 43221)	1			5102	2.62e5	inactive
Uhg3 (GeneID 3772557)	1			4504	5.39e5	inactive
Rsph3 (GeneID 38751)	1			9078	4.65e5	inactive
Rsph3 (GeneID 38751)	2			5427	4.03e5	inactive
fos28F (retired record) (GeneID 34113)	1			8510	5.90e5	inactive
Cals (GeneID 43824)	1			6815	2.69e5	inactive
Cals (GeneID 43824)	2			9259	4.68e5	inactive
lncRNA:CR32690 (GeneID 10178944)	1			9224	6.77e5	inactive
CG13540 (GeneID 37686)	1			6260	5.21e5	inactive
nerfin-1 (GeneID 44786)	1			6071	4.37e5	inactive
Acbp5 (GeneID 39005)	1			5651	4.05e5	inactive
CG1688 (GeneID 36005)	1			6739	3.12e5	inactive
CG1688 (GeneID 36005)	2	reporter ratio raised past the hit cutoff		1860	58526	inactive
Hsc70-5 (GeneID 36583)	1			6198	4.15e5	inactive
prim (GeneID 36814)	1			7344	4.19e5	inactive
Tsp42En (GeneID 35624)	1			7086	4.59e5	inactive
CG12725 (GeneID 32298)	1			4903	4.09e5	inactive
bon (GeneID 44235)	1			9074	4.97e5	inactive
CG17666 (GeneID 39452)	1			6727	3.50e5	inactive
CG42245 + MEP-1	1			4844	4.03e5	inactive
CG42245 + MEP-1	2			10662	5.07e5	inactive
CG42245 + MEP-1	3			7498	4.48e5	inactive
CG10163 (GeneID 38728)	1			7018	4.00e5	inactive
Ir60d (GeneID 7354402)	1			5495	3.08e5	inactive

Look-ups from the list:
CG13280 (GeneID 35015), Call = inactive
Under “stable assay Renilla, run 1 (luminescence)”, nerfin-1 (GeneID 44786) shows 6071
CG31869 (GeneID 34490) #1, stable assay Renilla, run 1 (luminescence): 7775
Value for Ndc80 (GeneID 32316) #2 in “stable assay Renilla, run 1 (luminescence)”: 10169
CG42245 + MEP-1 #1, stable assay Renilla, run 1 (luminescence) → 4844
